From article doi:10.1101/2025.10.14.682297 (bioRxiv, 2025) come the findings set out here.

Experiment [1] concerns the target human ZNFX1 (NFX1-type zinc finger-containing 1), full-length, 2xStrep-tagged, wild type (human) (UniProt Q9P2E3). Nature of the experiment: cryo-EM structure.
Experiment [2] shares this target. Nature of the experiment: cryo-EM structure. This is another data set of the same source.

Where two headings read alike, the source gives them in different places. These are yes or no findings as the source states them, for the method shown. Some entries that bind do so weakly or less than the wild type.

B1: human ZNFX1 (NFX1-type zinc finger-containing 1), full-length, 2xStrep-tagged, wild type (enzyme, UniProt Q9P2E3 1-1918, looked up)
chain: MEERRPHLDARPRNSHTNHRGPVDGELPPRARNQANNPPANALRGGASHPGRHPRANNHPAAYWQREERFRAMGRNPHQGRRNQEGHASDEARDQRHDQENDTRWRNGNQDCRNRRPPWSNDNFQQWRTPHQKPTEQPQQAKKLGYKFLESLLQKDPSEVVITLATSLGLKELLSHSSMKSNFLELICQVLRKACSSKMDRQSVLHVLGILKNSKFLKVCLPAYVVGMITEPIPDIRNQYPEHISNIISLLQDLVSVFPASSVQETSMLVSLLPTSLNALRASGVDIEEETEKNLEKVQTIIEHLQEKRREGTLRVDTYTLVQPEAEDHVESYRTMPIYPTYNEVHLDERPFLRPNIISGKYDSTAIYLDTHFRLLREDFVRPLREGILELLQSFEDQGLRKRKFDDIRIYFDTRIITPMCSSSGIVYKVQFDTKPLKFVRWQNSKRLLYGSLVCMSKDNFETFLFATVSNREQEDLCRGIVQLCFNEQSQQLLAEVQPSDSFLMVETTAYFEAYRHVLEGLQEVQEEDVPFQRNIVECNSHVKEPRYLLMGGRYDFTPLIENPSATGEFLRNVEGLRHPRINVLDPGQWPSKEALKLDDSQMEALQFALTRELAIIQGPPGTGKTYVGLKIVQALLTNESVWQISLQKFPILVVCYTNHALDQFLEGIYNCQKTSIVRVGGRSNSEILKQFTLRELRNKREFRRNLPMHLRRAYMSIMTQMKESEQELHEGAKTLECTMRGVLREQYLQKYISPQHWESLMNGPVQDSEWICFQHWKHSMMLEWLGLGVGSFTQSVSPAGPENTAQAEGDEEEEGEEESSLIEIAEEADLIQADRVIEEEEVVRPQRRKKEESGADQELAKMLLAMRLDHCGTGTAAGQEQATGEWQTQRNQKKKMKKRVKDELRKLNTMTAAEANEIEDVWQLDLSSRWQLYRLWLQLYQADTRRKILSYERQYRTSAERMAELRLQEDLHILKDAQVVGMTTTGAAKYRQILQKVEPRIVIVEEAAEVLEAHTIATLSKACQHLILIGDHQQLRPSANVYDLAKNFNLEVSLFERLVKVNIPFVRLNYQHRMCPEIARLLTPHIYQDLENHPSVLKYEKIKGVSSNLFFVEHNFPEQEIQEGKSHQNQHEAHFVVELCKYFLCQEYLPSQITILTTYTGQLFCLRKLMPAKTFAGVRVHVVDKYQGEENDIILLSLVRSNQEGKVGFLQISNRICVALSRAKKGMYCIGNMQMLAKVPLWSKIIHTLRENNQIGPMLRLCCQNHPETHTLVSKASDFQKVPEGGCSLPCEFRLGCGHVCTRACHPYDSSHKEFQCMKPCQKVICQEGHRCPLVCFQECQPCQVKVPKTIPRCGHEQMVPCSVPESDFCCQEPCSKSLRCGHRCSHPCGEDCVQLCSEMVTIKLKCGHSQPVKCGHVEGLLYGGLLVKCTTKCGTILDCGHPCPGSCHSCFEGRFHERCQQPCKRLLICSHKCQEPCIGECPPCQRTCQNRCVHSQCKKKCGELCSPCVEPCVWRCQHYQCTKLCSEPCNRPPCYVPCTKLLVCGHPCIGLCGEPCPKKCRICHMDEVTQIFFGFEDEPDARFVQLEDCSHIFEVQALDRYMNEQKDDEVAIRLKVCPICQVPIRKNLRYGTSIKQRLEEIEIIKEKIQGSAGEIATSQERLKALLERKSLLHQLLPEDFLMLKEKLAQKNLSVKDLGLVENYISFYDHLASLWDSLKKMHVLEEKRVRTRLEQVHEWLAKKRLSFTSQELSDLRSEIQRLTYLVNLLTRYKIAEKKVKDSIAVEVYSVQNILEKTCKFTQEDEQLVQEKMEALKATLPCSGLGISEEERVQIVSAIGYPRGHWFKCRNGHIYVIGDCGGAMERGTCPDCKEVIGGTNHTLERSNQLASEMDGAQHAAWSDTANNLMNFEEIQGMM
Turning to B1, the binding entry in experiment [1] and in experiment [2] was “binds weakly” in each case.
